Data published in PubChem BioAssay AID2685 (National Center for Advancing Translational Sciences (NCATS), 2010).
The other results are listed elsewhere or left out. Further columns of the screen follow, without active or inactive calls. Compounds called inactive in the main read-out are mostly missing here. Words in brackets tell the shape of the fitted curve; partial curves, single points and poor fits give uncertain potencies.

Test: qHTS Assay for Lipid Storage Modulators in Drosophila S3 Cells;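 for cell number change: cells counted by Cell Tracker Red CMTPX staining in the red channel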
Details: BODIPY lipid droplet fluorescence, 18-24 h; for cell number change: measured here: cell count max response, cells fed with added oleic acid
Method in brief: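 Laser-scanning cytometry quantifies lipid droplet accumulation (500–530 nm total intensity; droplet/cell object ratio) in oleic acid-fed (400 uM added) Drosophila S3 cells treated with a concentration series. 20 uM Triacsin C defined 100% inhibition.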

[1] = measured here: lipid fluorescence (Fed channel) AC50, cells fed with added oleic acid
[2] = measured here: cell number channel AC50, cells fed with added oleic acid

## CC(C)Sc1nc2ccccc2[nH]1
  cell number change: 12.8%

## CCC(=O)Nc1nnc(S(=O)(=O)N2c3ccccc3CC2C)s1 (centres undefined)
  cell number change: -0.599%
[1]
  AC50: 16.4 µM [rising, partial curve]

## CCOC(=O)N1CCC(n2c(SCC(=O)Nc3ccccc3OC)nc3ccccc3c2=O)CC1
  cell number change: -24%
[1]
  AC50: 0.731 µM [rising, single point]

## COc1ccc(Cn2c(C3CC3)nc3ccc(NC(=O)c4cccnc4)cc3c2=O)cc1
  cell number change: 23.7%
[1]
  AC50: 6.31 µM [falling, partial curve, poor fit]

## FC(F)(F)c1cccc(NC(=S)NNC(=S)Nc2ccc(Cl)cc2)c1
  cell number change: -48%
[2]
  AC50: 29.1 µM [falling, single point]

## COc1ccc(NC(=S)N(CCN(C)C)C(C)c2ccncc2)cc1Cl (centres undefined)
  cell number change: 3.47%
[1]
  AC50: 2.31 µM [rising, full curve, poor fit]

## Cc1cc(C)cc(NC(=O)c2ccc(CNc3c(N4CCCC4)c(=O)c3=O)cc2)c1
  cell number change: 19.4%
[1]
  AC50: 4.11 µM [rising, single point]

## Cc1ccc(CNc2nc3ccccc3n3cnnc23)cc1
[2]
  AC50: 0.731 µM [rising, full curve, poor fit]

## Cc1cc(C(=O)NNC(=O)Nc2ccc(Cl)cc2)no1
  cell number change: -21.9%
[1]
  AC50: 3.66 µM [falling, full curve]

## CS(=O)(=O)c1ccc(C(=O)NCC2(N3CCCCC3)CCCCC2)cc1
  cell number change: 7.07%
[1]
  AC50: 6.51 µM [falling, partial curve]

## N#Cc1cc([N+](=O)[O-])ccc1NCCCn1ccnc1
  cell number change: 31.9%

## CN(C1CCCCC1)S(=O)(=O)c1ccc2c(c1)c(=O)c(C(=O)NCCCN1CCCC1)cn2C
  cell number change: 31.5%
[2]
  AC50: 0.058 µM [rising, full curve, poor fit]

## COc1cc(NC(=S)NCCCO)c(OC)cc1Cl
  cell number change: -39.8%

## CCc1c(C2(O)CCCCC2)[nH]c2c(C(=O)OC)cc(Cl)cc12
  cell number change: -16.5%

## Cc1ccc(-c2nn(CCC(=O)NN3CCOCC3)c(=O)c3ccccc23)cc1
  cell number change: -48.5%
[2]
  AC50: 4.11 µM [falling, single point]
[1]
  AC50: 4.61 µM [falling, single point]

## CCc1sc(C(=O)NC(C)C2CCCO2)cc1Br (centres undefined)
  cell number change: 1.42%
[1]
  AC50: 0.708 µM [falling, single point]

## COc1ccc(S(=O)(=O)Nc2ccc(Cc3ccncc3)cc2)cc1OC
  cell number change: 11.8%
[1]
  AC50: 29.1 µM [falling, single point]

## Cc1nnc2ccc(N3CCN(C(=O)c4ccccc4)CC3)nn12
  cell number change: 19.9%
[1]
  AC50: 1.46 µM [rising, partial curve, poor fit]

## N#C/C(=C(/O)c1ccc(Cl)cc1)c1nc2ccccc2[nH]1
  cell number change: 31.2%
[2]
  AC50: 16.4 µM [rising, single point]
[1]
  AC50: 6.51 µM [rising, single point]

## COCc1cc(C)nc(SCC(=O)Oc2ccccc2)c1C#N
  cell number change: -64.3%

## CCOc1ccccc1NC(=O)CNC(=O)CNC(=O)Cc1ccccc1
  cell number change: 28.2%
[1]
  AC50: 2.91 µM [rising, full curve, poor fit]

## O=C(c1nc2ncccn2n1)N1CCc2ccccc2C1
  cell number change: 11%
[1]
  AC50: 6.51 µM [rising, single point]

## CCN=c1scc(-c2ccco2)n1/N=C/c1ccc(O)cc1
  cell number change: 4.84%
[2]
  AC50: 6.51 µM [rising, single point]
[1]
  AC50: 13 µM [rising, partial curve]

## COc1ccc(-c2cc(C(=O)N3CCCCCC3)c3ccccc3n2)cc1
  cell number change: 159%
[2]
  AC50: 23.1 µM [rising, partial curve]

## Cc1ccc(C)c(Cn2cnc3c(cnn3C(C)(C)C)c2=O)c1
  cell number change: -34.1%
[2]
  AC50: 11.6 µM [falling, partial curve]
[1]
  AC50: 0.411 µM [falling, full curve]

## CCOC(=O)c1cnc2ccc(OCC)cc2c1NCc1ccccc1
  cell number change: -17.8%
[1]
  AC50: 16.4 µM [falling, single point]

## CCCC1=Nc2cc(C(=O)N3CCC(C(=O)OCC)CC3)ccc2Sc2ccccc21
  cell number change: 12.2%
[1]
  AC50: 6.51 µM [rising, single point]

## Cc1cccc(NC(=O)C2CCCN2S(=O)(=O)c2ccc3c(c2)n(C)c(=O)c(=O)n3C)c1 (centres undefined)
  cell number change: 6.34%
[1]
  AC50: 29.1 µM [falling, single point]

## Cn1nnnc1SCC(=O)NC(=O)Cc1ccccc1
  cell number change: -24.7%
[1]
  AC50: 11.6 µM [falling, partial curve, poor fit]

## O=C(NC1CCCC1)C(c1cccnc1)N(Cc1ccc(F)cc1)C(=O)c1csnn1 (centres undefined)
  cell number change: -35.2%
[2]
  AC50: 11.6 µM [falling, partial curve, poor fit]
[1]
  AC50: 6.51 µM [rising, single point]

## CCOC(=O)Cn1c(=O)n(Cc2ccco2)c(=O)c2ccc(C(=O)NC3CCCC3)cc21
  cell number change: -0.659%

## O=C(O)C1CCCCC1C(=O)NC1C2CC3CC(C2)CC1C3 (centres undefined)
  cell number change: 6.08%

## C(=N\Nc1nn[nH]n1)/c1ccccc1
  cell number change: 18.9%
[1]
  AC50: 29.1 µM [rising, single point]

## CCCOc1ccc(C(=O)CCC(=O)OCC(=O)N2CC(=O)Nc3ccccc32)cc1
  cell number change: -30%
[1]
  AC50: 29.1 µM [rising, single point]

## CCN(CC(=O)Nc1ccccc1C(F)(F)F)C(=O)c1oc2ccc(OC)cc2c1C
  cell number change: 21.2%

## Cc1cc(C)cc(N(CC(=O)NC(C)C)C(=O)CCC(=O)Nc2ccccn2)c1
  cell number change: 7.61%
[1]
  AC50: 11.6 µM [rising, partial curve]

## C/C(=N/NC(=O)c1cccc(Br)c1)C1CC2CCC1C2 (centres undefined)
  cell number change: 18.8%

## Cc1cc(C)n(CC(O)COc2ccccc2C(=O)Nc2ccccc2)n1 (centres undefined)
  cell number change: -18%
[1]
  AC50: 5.8 µM [rising, single point]

## COc1cc(OC)c(NC(=O)c2cccc(F)c2)cc1Cl
  cell number change: 10.1%
[1]
  AC50: 0.206 µM [rising, full curve]

## Cc1nnc(C)n1/N=C/c1ccccn1
  cell number change: -26.3%
[2]
  AC50: 0.326 µM [falling, full curve, poor fit]
[1]
  AC50: 1.03 µM [falling, full curve]

## O=C(C1=C[C@H](c2ccccc2)C[C@H](OCCCCO)O1)N1CCN(Cc2ccccc2)CC1
  cell number change: -8.32%
[1]
  AC50: 0.82 µM [falling, full curve, poor fit]

## Cc1c(/C=C(\C#N)C(=O)NCc2ccccc2)cc(C#N)n1C
  cell number change: -1.59%
[2]
  AC50: 0.731 µM [rising, full curve, poor fit]
[1]
  AC50: 0.82 µM [rising, partial curve, poor fit]

## CC(=O)c1cccc(NC(=O)c2c(F)c(F)c(F)c(F)c2F)c1
  cell number change: -25.1%
[1]
  AC50: 11.6 µM [falling, partial curve]

## Cc1ccc(C)c(NC(=O)CCn2nc(C)cc2C)c1
  cell number change: 20.8%
[1]
  AC50: 0.146 µM [rising, full curve, poor fit]

## Cc1ccc(NC(=O)CSc2ccccc2NC(=O)c2ccccc2)cc1Cl
[1]
  AC50: 13 µM [falling, partial curve]

## CCOC(=O)C1(CCOc2ccccc2)CCN(Cc2ccc(O)c(OC)c2)CC1
  cell number change: -27%

## CCOC(=O)C1CCCN(C(=O)c2cccc(S(=O)(=O)N(C)c3ccc(C)cc3)c2)C1 (centres undefined)
  cell number change: 0.367%
[1]
  AC50: 6.51 µM [falling, partial curve]

## CC(C)c1ccc2oc(-c3cc(N)ccc3O)nc2c1
  cell number change: 6.59%

## O=[N+]([O-])c1ccccc1CNCCO
  cell number change: -0.99%
[2]
  AC50: 0.00461 µM [falling, full curve, poor fit]
[1]
  AC50: 25.9 µM [falling, partial curve, poor fit]

## CCOC(=O)c1sc(NC(=O)/C=C/c2cnn(C)c2C)c(C(=O)OCC)c1C
  cell number change: -2.3%
[1]
  AC50: 0.0461 µM [rising, full curve, poor fit]

## COc1ccc(N2C(=O)C3CC=C(Cl)CC3C2=O)cc1 (centres undefined)
  cell number change: 30.3%
[2]
  AC50: 14.6 µM [rising, partial curve, poor fit]

## c1cncc(-c2nnc3sc(-c4ccco4)nn23)c1
  cell number change: 6.23%

## Cc1ccc(C)c(N(CC(=O)NC2CCCCC2)C(=O)CCC(=O)Nc2ccccn2)c1
  cell number change: 30.7%
[2]
  AC50: 2.31 µM [rising, partial curve, poor fit]

## CC(C)(C)C1CCc2[nH]c3ccccc3c(=O)c2C1 (centres undefined)
  cell number change: -9.84%
[1]
  AC50: 20.6 µM [rising, single point]

## COc1cc(/C(C)=N/N2CCN(c3ccccc3OC)CC2)ccc1O
  cell number change: 2.65%
[1]
  AC50: 6.51 µM [falling, single point]

## COc1ccc(S(=O)(=O)N2CCOCC2)cc1NC(=O)Cc1c(Cl)cccc1Cl
  cell number change: -20.1%
[2]
  AC50: 1.84 µM [falling, full curve, poor fit]

## Cc1ccc2c(CC(=O)OC3CCOC3=O)coc2c1 (centres undefined)
  cell number change: -20.6%
[2]
  AC50: 1.64 µM [falling, partial curve, poor fit]
[1]
  AC50: 3.66 µM [falling, full curve]

## CCCN(Cc1cc2ccc(C)cc2[nH]c1=O)C(=O)c1cccnc1
  cell number change: 12.3%
[1]
  AC50: 0.0291 µM [rising, full curve, poor fit]

## COc1ccc(CCNC(=O)Cn2c(=O)oc3cc(Cl)ccc32)cc1OC
  cell number change: -0.337%
[2]
  AC50: 0.184 µM [falling, full curve, poor fit]

## COCCN(CC(=O)Nc1cccc(C)c1C)C(=O)c1ccc2c(c1)OCO2
  cell number change: 75%
[2]
  AC50: 6.51 µM [falling, single point]
[1]
  AC50: 0.092 µM [rising, full curve, poor fit]

## CCOc1ccc(OCc2ccc(C(=O)N(C)c3ccccc3)o2)cc1
  cell number change: 21.4%
[1]
  AC50: 29.1 µM [rising, single point]

## O=C(CSc1nnc(CCc2nc3ccccc3[nH]2)n1-c1ccccc1)NCc1ccco1
  cell number change: 21%
